{"source": "PubChem BioAssay AID504467", "about": "(National Center for Advancing Translational Sciences (NCATS), 2011)", "note": "The whole screen tested about 330,000 compounds, of which about 7,700 (2.3%) were called active. The shares of active, inactive and inconclusive entries below differ from those in the screen. The call rests on the fitted dose curve; in most records, active means well fitted inhibition curve with a large enough effect; inconclusive means small, poorly fitted or top-dose-only effect, or effect the other way; inactive means flat fitted curve, though single readings scatter. Potencies of inconclusive entries are doubtful fits and often do not repeat. On the % scale 0 is the no-effect control and ±100 the full control effect; potency means the concentration at half of the fitted maximal effect."}
{"experiment": "qHTS screen for small molecules that inhibit ELG1-dependent DNA repair in human embryonic kidney (HEK293T) cells expressing luciferase-tagged ELG1; further: nearly all actives have a fitted effect of over 55% in size", "conditions": "HEK293T ELG1-luciferase reporter, luminescence, 16 h, DNA damage induced by 5-fluorouridine; activity change, negative = inhibition: at 46.1 µM (top of the series)", "summary_of_the_method": "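Luminescence from the luciferase reporter, measured 30 min after ONE-Glo reagent at room temperature, was the read-out. Beforehand, 2,000 cells per well were exposed for 16 hr at 37 °C to 5-fluorouridine together with compound or vehicle.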"}
{"smiles": "CCOc1ccc(Nc2ncnc3c2cnn3-c2ccccc2)cc1", "activity change, negative = inhibition": "inactive: 18%"}
{"smiles": "O=Cc1cc(N=Nc2cccc(C(=O)O)c2)ccc1O", "activity change, negative = inhibition": "inactive: 11.1%"}
{"smiles": "O=C(CCCc1cccs1)Nc1nc2c(s1)CCCC2", "Potency": "inconclusive: 20.6 µM [activator, partial curve]"}
{"smiles": "CC(C)(C)c1ccc(S(=O)(=O)NC(Cc2ccccc2)C(=O)O)cc1", "note": "(stereo not drawn)", "Potency": "inconclusive: 20.6 µM [activator, single point]"}
{"smiles": "C=CCn1c(SCc2csc(C)n2)nc2sc3c(c2c1=O)CCC(C)C3", "note": "(stereo not drawn)", "Potency": "inconclusive: 18.4 µM [inhibitor, single point]"}
{"smiles": "S=c1[nH]nc(C2CCCCC2)n1/N=C/c1ccccn1", "activity change, negative = inhibition": "inactive: 12.4%"}
{"smiles": "COC(=O)C1(C)CN(S(=O)(=O)c2ccc(C)cc2)c2cc(OC)ccc2C1=O", "note": "(stereo not drawn)", "Potency": "inconclusive: 29.1 µM [inhibitor, single point]"}
{"smiles": "O=C(Nc1ccccc1-c1nnn(CC(=O)N2CCCc3ccccc32)n1)c1ccc(Cl)cc1", "Potency": "inconclusive: 9.2 µM [inhibitor, partial curve]"}
{"smiles": "NNC(=O)c1ccc2[nH]c3c(c2c1)CCCC3", "activity change, negative = inhibition": "inactive: -21.5%"}
{"smiles": "CC(=O)c1ccc(NC(=O)c2ccc(NC(=O)CCS(=O)(=O)c3cccs3)cc2)cc1", "Potency": "inconclusive: 20.6 µM [activator, single point]"}
{"smiles": "Cc1ccccc1-n1c(SCC(=O)Nc2ccc3c(c2)OCO3)nnc1-c1ccccn1", "Potency": "inconclusive: 25.9 µM [inhibitor, single point]"}
{"smiles": "O=C(c1cc2ccccc2o1)N(C1CC1)C1(C(=O)Nc2ccccc2)CCCC1", "Potency": "inconclusive: 29.1 µM [inhibitor, partial curve, poor fit]"}
{"smiles": "CCn1c(SCC(=O)NC2CC2)nnc1-c1csc(C)c1", "activity change, negative = inhibition": "inactive: -2.04%"}
{"smiles": "COC(=O)Cn1c2ccc(Cl)cc2c2nc(C)sc21", "activity change, negative = inhibition": "inactive: 2.13%"}
{"smiles": "O=S(=O)(CC(CN1CCCCC1)N1CCCCC1)c1ccccc1", "note": "(stereo not drawn)", "Potency": "inconclusive: 32.6 µM [inhibitor, partial curve, poor fit]"}
{"smiles": "Cc1ccc2nc(-c3ccc(O)c(O)c3)cn2c1", "Potency": "inconclusive: 3.66 µM [activator, partial curve]"}
{"smiles": "COc1ccc(NC(=O)N2CCCC(c3nc(-c4ccc(OC)cc4)no3)C2)cc1", "note": "(stereo not drawn)", "activity change, negative = inhibition": "inactive: -14%"}
{"smiles": "Cc1cccc(NC(=O)NNC(=O)c2cc3occc3[nH]2)c1C", "activity change, negative = inhibition": "inactive: 6.22%"}
{"smiles": "COc1ccccc1NC(=O)CSc1nnc(CNC(=O)c2cccs2)o1", "activity change, negative = inhibition": "inactive: 15.6%"}
{"smiles": "N#Cc1ccc(-c2ccc(OCC(=O)NCCCN3CCCC3=O)cc2)cc1", "Potency": "inconclusive: 6.51 µM [activator, single point]"}
{"smiles": "CC(=O)c1ccc(NS(=O)(=O)c2ccc(N)cc2)cc1", "Potency": "inconclusive: 29.1 µM [activator, single point]"}
{"smiles": "Cc1cc(N2CCN(c3ccc(F)cc3)CC2)nc(-c2ccccc2)n1", "Potency": "inconclusive: 14.6 µM [inhibitor, partial curve]"}
{"smiles": "CCN(CC)S(=O)(=O)c1ccc(Cl)c(C(=O)NC2CCN(Cc3ccccc3)CC2)c1", "Potency": "inconclusive: 9.2 µM [inhibitor, partial curve]"}
{"smiles": "CC1(C)CC(=O)C=C(c2cccc3c2Oc2ccccc2S3)C1", "activity change, negative = inhibition": "inactive: 13%"}
{"smiles": "COc1ccc(O)c(/C=C2/SC(=S)N(Cc3ccccc3)C2=O)c1", "activity change, negative = inhibition": "inactive: -2.95%"}
{"smiles": "O=C(C1CCN(S(=O)(=O)c2ccccc2F)CC1)N1CCN(Cc2ccc3c(c2)OCO3)CC1", "Potency": "inconclusive: 20.6 µM [inhibitor, single point]"}
{"smiles": "O=C(NCc1cc([N+](=O)[O-])ccc1O)c1cc(-c2ccncc2)nc2ccccc12", "activity change, negative = inhibition": "inactive: -17.3%"}
{"smiles": "COc1cc(NC(=O)COc2cccc3c2OC(C)(C)C3)cc(OC)c1OC", "Potency": "active: 12.6 µM"}
{"smiles": "CCOC(=O)C1(Cc2ccccc2)CCN(Cc2cccc3nccnc23)CC1", "Potency": "inconclusive: 18.3 µM [inhibitor, single point]"}
{"smiles": "Cc1ccc(N(Cc2cc3ccccc3[nH]c2=O)C(=O)c2cccs2)cc1", "Potency": "inconclusive: 23.1 µM [inhibitor, partial curve]"}
{"smiles": "CC(=O)Oc1ccc2c(=O)c(Oc3ccccc3[N+](=O)[O-])coc2c1", "activity change, negative = inhibition": "inactive: 1.78%"}
{"smiles": "COc1ccc(-c2nc3ncccn3c2Nc2ccccc2)cc1", "activity change, negative = inhibition": "inactive: -19.3%"}
{"smiles": "Cc1ccc(C2C3C(=O)N(c4ccc(C)cc4)C(=O)C3N3CCCN23)cc1", "note": "(stereo not drawn)", "activity change, negative = inhibition": "inactive: -13.8%"}
{"smiles": "Cc1onc(-c2c(Cl)cccc2Cl)c1C(O)c1ccccc1", "note": "(stereo not drawn)", "activity change, negative = inhibition": "inactive: 3.83%"}
{"smiles": "CC(NC(=O)NNC(N)=S)(C(F)(F)F)C(F)(F)F", "activity change, negative = inhibition": "inactive: -0.0944%"}
{"smiles": "O=C(c1ccccc1)c1coc2ccc(O)c(Cl)c12", "Potency": "inconclusive: 29.1 µM [inhibitor, single point]"}
{"smiles": "Cc1ccccc1Nc1nnc(SCc2cc([N+](=O)[O-])cc3c2OCOC3)s1", "Potency": "inconclusive: 29.1 µM [inhibitor, single point]"}
{"smiles": "O=C(COC(=O)CNS(=O)(=O)c1ccc(Cl)cc1)NC1CCCCC1", "activity change, negative = inhibition": "inactive: 9.53%"}
{"smiles": "O=C1c2ccccc2C(=O)N1Cc1cnc(N2CCN(c3ccccc3)CC2)s1", "Potency": "inconclusive: 10.3 µM [inhibitor, partial curve, poor fit]"}
{"smiles": "COc1cccc(-c2nc(CSCC(=O)N3CCc4ccccc43)c(C)o2)c1", "Potency": "inconclusive: 29.1 µM [inhibitor, single point]"}
{"smiles": "N#CNC(=Nc1cccc(C(F)(F)F)c1)SCc1ccc(C(=O)O)cc1", "activity change, negative = inhibition": "inactive: -1.04%"}
{"smiles": "O=C(NC(=S)Nc1ccccc1[N+](=O)[O-])c1ccco1", "Potency": "inconclusive: 20.6 µM [activator, partial curve]"}
{"smiles": "Cc1ccc(/C=N/N=C/c2ccc(C)s2)s1", "Potency": "inconclusive: 2.31 µM [activator, full curve]"}
{"smiles": "CCOC(=O)c1c(NC(=O)CSc2ccccc2C(=O)O)sc(C)c1C", "activity change, negative = inhibition": "inactive: -14.6%"}
{"smiles": "CC[C@H](C)[C@@H](NC(=O)O[C@@H]1C(=O)c2cc(Br)ccc2O[C@H]1c1cccc(OC)c1)C(=O)OC", "activity change, negative = inhibition": "inactive: -6.89%"}
{"smiles": "CS(=O)(=O)N1CCN(c2nc(-c3ccc(F)cc3)cs2)CC1", "Potency": "inconclusive: 23.1 µM [activator, partial curve, poor fit]"}
{"smiles": "C[C@H](CO)N1C[C@H](C)[C@@H](CN(C)C(=O)Nc2ccc(C(F)(F)F)cc2)Oc2c(NS(=O)(=O)c3cn(C)cn3)cccc2C1=O", "activity change, negative = inhibition": "inactive: 15.7%"}
{"smiles": "Cc1ccc2nc(NCc3ccccc3)c(C=NCc3ccccc3)c(=O)n2c1", "Potency": "inconclusive: 16.4 µM [activator, partial curve]"}
